# Laboratory results published in the supplement of paper PMC8728848.
# Some of the results follow.
# B1: EUL D1A first (Oryza sativa) (protein)
# chain: MFGFGHHHNQAPAAPSDPNQIFKIFCRANENYCLTVRDSAVVLAPVNPKDEHQHWFKDMRFSTKVKDGEGMPAFALVNKATGLAVKHSLGQSHPVKLVPFNPEYEDASVLWTESKDVGKGFRCIRMVNNTRLNLDAFHGDKDHGGVRDGTTVVLWEWCKGDNQSWKILPWGPEAHSSSPGAATILEQKLISEEDLNSAVDHHHHHH
# Experiments:
# Assay in all cases: glycan array binding signal (z-score within array); higher = stronger binding
# Conditions in all cases: glycan notation: IUPAC condensed, linker removed
# [1] = molecular target: Gal(b1-4)GlcNAc(b1-3)Gal(b1-4)GlcNAc(b1-3)Gal(b1-4)GlcNAc(b1-3)Gal(b1-4)GlcNAc(b1-2)Man(a1-3)[Gal(b1-4)GlcNAc(b1-3)Gal(b1-4)GlcNAc(b1-3)Gal(b1-4)GlcNAc(b1-3)Gal(b1-4)GlcNAc(b1-2)Man(a1-6)]Man(b1-4)GlcNAc(b1-4)[Fuc(a1-6)]GlcNAc
# How it was run: (§1)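 Glycan array binding is given as a within-array Z-score, which can be read as non-binding when negative. The arrays, 3228 of them, came from the Consortium for Functional Glycomics database and were retained only where the protein sequence was available. Z-scores were averaged across arrays of the same protein sequence at different concentrations or buffers and across linkers.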
# [2] = molecular target: Gal(b1-4)GlcNAc(b1-3)Gal(b1-4)GlcNAc(b1-3)Gal(b1-4)GlcNAc(b1-3)Gal(b1-4)GlcNAc(b1-2)[Gal(b1-4)GlcNAc(b1-3)Gal(b1-4)GlcNAc(b1-3)Gal(b1-4)GlcNAc(b1-3)Gal(b1-4)GlcNAc(b1-6)]Man(a1-6)[Gal(b1-4)GlcNAc(b1-3)Gal(b1-4)GlcNAc(b1-3)Gal(b1-4)GlcNAc(b1-3)Gal(b1-4)GlcNAc(b1-2)Man(a1-3)]Man(b1-4)GlcNAc(b1-4)[Fuc(a1-6)]GlcNAc
# How it was run: as §1
# [3] = molecular target: Gal(b1-4)GlcNAc(b1-3)Gal(b1-4)GlcNAc(b1-3)Gal(b1-4)GlcNAc(b1-3)Gal(b1-4)GlcNAc(b1-3)Gal(b1-4)GlcNAc(b1-2)Man(a1-3)[Gal(b1-4)GlcNAc(b1-3)Gal(b1-4)GlcNAc(b1-3)Gal(b1-4)GlcNAc(b1-3)Gal(b1-4)GlcNAc(b1-3)Gal(b1-4)GlcNAc(b1-2)Man(a1-6)]Man(b1-4)GlcNAc(b1-4)GlcNAc
# How it was run: as §1
# [4] = molecular target: Gal(b1-4)GlcNAc(b1-3)Gal(b1-4)GlcNAc(b1-3)Gal(b1-4)GlcNAc(b1-3)Gal(b1-4)GlcNAc(b1-3)Gal(b1-4)GlcNAc(b1-2)Man(a1-3)[Gal(b1-4)GlcNAc(b1-3)Gal(b1-4)GlcNAc(b1-3)Gal(b1-4)GlcNAc(b1-3)Gal(b1-4)GlcNAc(b1-3)Gal(b1-4)GlcNAc(b1-2)Man(a1-6)]Man(b1-4)GlcNAc(b1-4)[Fuc(a1-6)]GlcNAc
# How it was run: as §1
# [5] = molecular target: Gal(b1-4)GlcNAc(b1-3)Gal(b1-4)GlcNAc(b1-3)Gal(b1-4)GlcNAc(b1-3)Gal(b1-4)GlcNAc(b1-3)Gal(b1-4)GlcNAc(b1-2)[Gal(b1-4)GlcNAc(b1-3)Gal(b1-4)GlcNAc(b1-3)Gal(b1-4)GlcNAc(b1-3)Gal(b1-4)GlcNAc(b1-3)Gal(b1-4)GlcNAc(b1-6)]Man(a1-6)[Gal(b1-4)GlcNAc(b1-3)Gal(b1-4)GlcNAc(b1-3)Gal(b1-4)GlcNAc(b1-3)Gal(b1-4)GlcNAc(b1-3)Gal(b1-4)GlcNAc(b1-2)Man(a1-3)]Man(b1-4)GlcNAc(b1-4)[Fuc(a1-6)]GlcNAc
# How it was run: as §1
# [6] = molecular target: Gal(b1-4)GlcNAc(b1-3)Gal(b1-4)GlcNAc(b1-3)Gal(b1-4)GlcNAc(b1-3)Gal(b1-4)GlcNAc(b1-3)Gal(b1-4)GlcNAc(b1-3)Gal(b1-4)GlcNAc(b1-2)Man(a1-3)[Gal(b1-4)GlcNAc(b1-3)Gal(b1-4)GlcNAc(b1-3)Gal(b1-4)GlcNAc(b1-3)Gal(b1-4)GlcNAc(b1-3)Gal(b1-4)GlcNAc(b1-3)Gal(b1-4)GlcNAc(b1-2)Man(a1-6)]Man(b1-4)GlcNAc(b1-4)GlcNAc
# How it was run: as §1
# [7] = molecular target: Gal(b1-4)GlcNAc(b1-3)Gal(b1-4)GlcNAc(b1-3)GalNAc
# How it was run: as §1
# [8] = molecular target: Gal(b1-4)GlcNAc(b1-3)Gal(b1-4)GlcNAc(b1-3)[Gal(b1-4)GlcNAc(b1-3)Gal(b1-4)GlcNAc(b1-6)]GalNAc
# How it was run: as §1
# [9] = molecular target: Gal(b1-4)GlcNAc(b1-3)Gal(b1-4)GlcNAc(b1-6)[Gal(b1-3)]GalNAc
# How it was run: as §1
# [10] = molecular target: Gal(b1-4)GlcNAc(b1-3)Gal(b1-4)[Fuc(a1-3)]GlcNAc(b1-3)Gal(b1-4)[Fuc(a1-3)]GlcNAc
# How it was run: as §1
# [11] = molecular target: Gal(b1-4)GlcNAc(b1-3)GalNAc
# How it was run: as §1
# [12] = molecular target: Gal(b1-4)GlcNAc(b1-3)[Fuc(a1-3)GlcNAc(b1-6)]Gal(b1-4)Glc
# How it was run: as §1
# [13] = molecular target: Gal(b1-4)GlcNAc(b1-3)[Gal(b1-4)GlcNAc(b1-6)]Gal(b1-4)GlcNAc
# How it was run: as §1
# [14] = molecular target: Gal(b1-4)GlcNAc(b1-3)[GlcNAc(b1-6)]Gal(b1-4)GlcNAc
# How it was run: as §1
# [15] = molecular target: Gal(b1-4)GlcNAc(b1-6)Gal(b1-4)GlcNAc
# How it was run: as §1
# [16] = molecular target: Gal(b1-4)GlcNAc(b1-6)GalNAc
# How it was run: as §1
# [17] = molecular target: Gal(b1-4)GlcNAc(b1-6)[Gal(b1-3)]GalNAc
# How it was run: as §1
# [18] = molecular target: Gal(b1-4)GlcNAc(b1-6)[Gal(b1-4)GlcNAc(b1-3)]GalNAc
# How it was run: as §1
# [19] = molecular target: Gal(b1-4)GlcNAc6P
# How it was run: as §1
# [20] = molecular target: Gal(b1-6)Gal
# How it was run: as §1
# [21] = molecular target: Gal3S(b1-3)GalNAc
# How it was run: as §1
# [22] = molecular target: Gal3S(b1-3)GlcNAc
# How it was run: as §1
# [23] = molecular target: Gal3S(b1-3)[Fuc(a1-4)]GlcNAc
# How it was run: as §1
binder,measurement,setting,value
B1,glycan array binding signal (z-score),[1],1.13
same,glycan array binding signal (z-score),[2],1.1
same,glycan array binding signal (z-score),[3],-0.457
same,glycan array binding signal (z-score),[4],0.909
same,glycan array binding signal (z-score),[5],1.22
same,glycan array binding signal (z-score),[6],0.178
same,glycan array binding signal (z-score),[7],0.845
same,glycan array binding signal (z-score),[8],0.419
same,glycan array binding signal (z-score),[9],1.33
same,glycan array binding signal (z-score),[10],-0.16
same,glycan array binding signal (z-score),[11],-0.13
same,glycan array binding signal (z-score),[12],-0.392
same,glycan array binding signal (z-score),[13],-1.36
same,glycan array binding signal (z-score),[14],-0.46
same,glycan array binding signal (z-score),[15],-0.529
same,glycan array binding signal (z-score),[16],0.961
same,glycan array binding signal (z-score),[17],-0.087
same,glycan array binding signal (z-score),[18],-0.802
same,glycan array binding signal (z-score),[19],0.658
same,glycan array binding signal (z-score),[20],0.044
same,glycan array binding signal (z-score),[21],-1.5
same,glycan array binding signal (z-score),[22],0.245
same,glycan array binding signal (z-score),[23],0.422

# Some of the entries so far, tab-delimited.
binder	measurement	setting	value
B1	glycan array binding signal (z-score)	[14]	-0.46
same	glycan array binding signal (z-score)	[15]	-0.529
